According to PubChem BioAssay AID493014 (National Center for Advancing Translational Sciences (NCATS), 2011):
This is one part of the list. The main result of the screen is listed elsewhere. These columns were measured beside it and carry no call. Most of these compounds were active or inconclusive in the main read-out, so they are no random draw. The note in brackets gives the kind of curve behind each potency; many fits are weak.

Assay: qHTS Assay to Find Inhibitors of Chronic Active B-Cell Receptor Signaling
Details: ABC-DLBCL IkBa-CBG/CBR reporter, luminescence ratio (green luciferase fused to IkBa over red control in TMD8 lymphoma cells), 4 h
Procedure, shortened: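 TMD8 ABC-DLBCL cells carrying doxycycline-inducible green luciferase fused to IkappaBalpha plus unfused red luciferase were exposed to compounds (up to 46 uM) for 4 hrs at 37C. Activity came from the overlap-corrected green/red luminescence ratio.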

[1] = measured here: CBR red luminescence, cell number
[2] = measured here: IkBa-CBG green luminescence

| SMILES | AC50 [1] | AC50 [2] |
| --- | --- | --- |
| COCCCNC(=O)c1c(N)n(/N=C/c2cccs2)c2nc3ccccc3nc12 | 11.2 µM [falling, partial curve, poor fit] | – |
| COc1ccc(OCc2nnc(SCC(=O)N3CCCc4ccccc43)n2-c2ccc(C)cc2)cc1 | 25.9 µM [falling, single point] | – |
| COc1ccc(/C=C2/C(=O)N=C(N)N2C)cc1OC | 20.6 µM [rising, partial curve, poor fit] | – |
| Cc1ccc(-c2nc(C=Nc3ccc(O)cc3)c(O)o2)cc1 | 35.5 µM [falling, single point] | – |
| CCS(=O)(=O)N1CCN(c2cccc(C)c2C)CC1 | 22.4 µM [rising, single point] | – |
| Cc1ccccc1NC(=O)c1ccc([N+](=O)[O-])o1 | 28.2 µM [falling, single point] | – |
| CCOC(=O)c1cn(Cc2cccc(Cl)c2)c2cc(C)nn2c1=O | 3.16 µM [rising, full curve, poor fit] | – |
| Cc1ccc(NC(=O)/C(C#N)=N/Nc2ccc(C(=O)O)cc2)c(C)c1 | 0.316 µM [falling, full curve] | – |
| COc1ccc(-c2ncccc2OC(=O)C23CC4CC(CC(C4)C2)C3)cc1 | 16.4 µM [rising, partial curve, poor fit] | – |
| CC(C)(C)S(=O)(=O)c1cnc(N2CCOCC2)nc1N | 0.891 µM [rising, full curve, poor fit] | – |
| CCCc1ccc(S(=O)(=O)NCCc2ccncc2)cc1 | 10.3 µM [falling, single point] | – |
| COc1ccc(C(=O)N/N=C(\C)CC(=O)N2CCN(C=O)CC2)cc1 | 14.6 µM [falling, partial curve] | – |
| Cc1ccc(NC(=O)CN(C)C(=O)COC(=O)/C=C/c2cccs2)cc1 | 1.3 µM [rising, full curve, poor fit] | – |
| Cc1cccc(C(=O)Nc2scc(CC(C)C)c2C(=O)O)c1 | 11.6 µM [falling, partial curve] | – |
| COc1ccc(C2CC(c3cccs3)=NN2S(C)(=O)=O)cc1OC (stereo not drawn) | 35.5 µM [rising, single point] | – |
| Cc1[nH]n(C)c(=O)c1C(=O)c1c(-c2ccccc2Cl)noc1C | 5.62 µM [falling, full curve, poor fit] | – |
| Cc1ccc(C(=O)Nc2ccccc2C(=O)NC(CC(=O)O)C(=O)O)cc1 (stereo not drawn) | 11.2 µM [falling, single point] | – |
| Cc1nc(N)sc1N=Nc1ccc(F)cc1 | 32.6 µM [falling, single point] | – |
| O=C(CSc1ccc(-c2ccco2)nn1)N1CCCCCC1 | 8.91 µM [falling, partial curve] | 14.1 µM [rising, partial curve, poor fit] |
| Cc1cc(C)cc(NC(=S)N(Cc2ccc(Cl)cc2)Cc2ccc(C(=O)O)cc2)c1 | – | 12.6 µM [rising, partial curve, poor fit] |
| COc1ccc(C2(CNC(C)=O)CCOCC2)cc1OC | 0.517 µM [rising, full curve, poor fit] | – |
| CCC(=O)N1CCN(c2ccc(NC(=O)c3cc4ccccc4o3)cc2Cl)CC1 | 29.1 µM [falling, single point] | 29.1 µM [rising, single point] |

| SMILES | AC50 [1] | AC50 [2] |
| --- | --- | --- |
| COC1CC(C)NC(=S)N1 (stereo not drawn) | 3.16 µM [falling, partial curve, poor fit] | – |
| Cc1ccc(S(=O)(=O)N(C)c2ccc(C(=O)Nc3ccc(C)cn3)cc2)cc1 | 2.59 µM [falling, partial curve, poor fit] | – |
| Fc1ccc2cnc(C3=CCCCC3)cc2c1 | 32.6 µM [rising, partial curve, poor fit] | – |
| CCOC(=O)c1c(S(=O)(=O)N2CCCC(C(=O)Nc3cc(C)ccn3)C2)c(C)n(C)c1C (stereo not drawn) | 25.1 µM [falling, single point] | – |
| COc1cccc(CNC(=O)N2CCN(c3ccccc3Cl)CC2)c1 | 7.94 µM [falling, partial curve] | – |
| COc1ccc(OC)c(C(c2nnnn2CCc2ccccc2)N2CCN(c3ccccc3)CC2)c1 (stereo not drawn) | 7.08 µM [rising, full curve, poor fit] | – |
| COc1ccc(C(=O)Nc2nccs2)cc1 | 15.8 µM [falling, single point] | – |
| Cc1cccc(-n2cc(-c3ccccc3)c3c(NC4CCCC4)ncnc32)c1 | 12.6 µM [rising, partial curve] | – |
| CC(C)N(C)C1CCN(S(=O)(=O)c2ccc(-c3ccc(=O)[nH]n3)s2)CC1 | 5.62 µM [falling, partial curve, poor fit] | – |
| CSc1nc(C)c2c(n1)N(c1ccc(O)cc1)CC2 | 1.26 µM [rising, full curve, poor fit] | – |
| Nc1ncnc2c1ncn2[C@@H]1O[C@H](COP(=O)(O)OP(=O)(O)OP(=O)(O)O)[C@@H](O)[C@H]1O | – | 18.4 µM [falling, partial curve] |
| C[C@]12CCC3C(CC[C@H]4CCCC[C@]34C)C1CC[C@@]2(O)CNCCO (stereo partly drawn) | 0.447 µM [rising, full curve] | – |
| COc1ccccc1NCC(=O)N/N=C/c1sccc1C | 2.51 µM [falling, partial curve, poor fit] | – |
| CC(=O)Nc1ccc(C(=O)OCC(=O)c2cccc([N+](=O)[O-])c2)cc1 | 29.1 µM [rising, single point] | – |
| Cc1cccc(C(=O)NNC(=O)c2ccc(Br)cc2)c1 | 12.6 µM [falling, single point] | – |
| COc1ccc(C(=S)N2CCOCC2)cc1OC(=O)c1ccc(C)cc1 | 35.5 µM [rising, single point] | – |
| O=C1c2cccc(OCC(=O)N3CCCc4ccccc43)c2CCN1Cc1ccc(Br)cc1 | 13 µM [falling, partial curve] | – |
| C=CS(=O)(=O)c1ccc(Oc2ccc(S(=O)(=O)C=C)cc2)cc1 | 1.46 µM [falling, full curve] | – |
| Cc1cc(C)nc(/N=C(\N)Nc2cccc(OCc3ccccc3)c2)n1 | 15.8 µM [rising, single point] | 22.4 µM [falling, single point] |
| CCOC(=O)C1CCN(C(=O)C2(NC(=O)Nc3cccc(F)c3)CCCCC2)CC1 | 3.98 µM [rising, full curve, poor fit] | – |
| CNC(=S)N/N=C(\C)c1ccc2c(c1)OCCO2 | – | 29.1 µM [falling, partial curve, poor fit] |
| CCOc1ccc2nc(NC(=O)C3CCCN(S(=O)(=O)c4c(C)noc4C)C3)sc2c1 (stereo not drawn) | 11.2 µM [falling, partial curve, poor fit] | – |

19 entries from above, bar-delimited:
SMILES | AC50 [1] | AC50 [2]
COC1CC(C)NC(=S)N1 (stereo not drawn) | 3.16 µM [falling, partial curve, poor fit] | –
Cc1ccc(S(=O)(=O)N(C)c2ccc(C(=O)Nc3ccc(C)cn3)cc2)cc1 | 2.59 µM [falling, partial curve, poor fit] | –
Fc1ccc2cnc(C3=CCCCC3)cc2c1 | 32.6 µM [rising, partial curve, poor fit] | –
CCOC(=O)c1c(S(=O)(=O)N2CCCC(C(=O)Nc3cc(C)ccn3)C2)c(C)n(C)c1C (stereo not drawn) | 25.1 µM [falling, single point] | –
COc1cccc(CNC(=O)N2CCN(c3ccccc3Cl)CC2)c1 | 7.94 µM [falling, partial curve] | –
COc1ccc(OC)c(C(c2nnnn2CCc2ccccc2)N2CCN(c3ccccc3)CC2)c1 (stereo not drawn) | 7.08 µM [rising, full curve, poor fit] | –
COc1ccc(C(=O)Nc2nccs2)cc1 | 15.8 µM [falling, single point] | –
Cc1cccc(-n2cc(-c3ccccc3)c3c(NC4CCCC4)ncnc32)c1 | 12.6 µM [rising, partial curve] | –
CC(C)N(C)C1CCN(S(=O)(=O)c2ccc(-c3ccc(=O)[nH]n3)s2)CC1 | 5.62 µM [falling, partial curve, poor fit] | –
CSc1nc(C)c2c(n1)N(c1ccc(O)cc1)CC2 | 1.26 µM [rising, full curve, poor fit] | –
Nc1ncnc2c1ncn2[C@@H]1O[C@H](COP(=O)(O)OP(=O)(O)OP(=O)(O)O)[C@@H](O)[C@H]1O | – | 18.4 µM [falling, partial curve]
C[C@]12CCC3C(CC[C@H]4CCCC[C@]34C)C1CC[C@@]2(O)CNCCO (stereo partly drawn) | 0.447 µM [rising, full curve] | –
COc1ccccc1NCC(=O)N/N=C/c1sccc1C | 2.51 µM [falling, partial curve, poor fit] | –
CC(=O)Nc1ccc(C(=O)OCC(=O)c2cccc([N+](=O)[O-])c2)cc1 | 29.1 µM [rising, single point] | –
Cc1cccc(C(=O)NNC(=O)c2ccc(Br)cc2)c1 | 12.6 µM [falling, single point] | –
COc1ccc(C(=S)N2CCOCC2)cc1OC(=O)c1ccc(C)cc1 | 35.5 µM [rising, single point] | –
O=C1c2cccc(OCC(=O)N3CCCc4ccccc43)c2CCN1Cc1ccc(Br)cc1 | 13 µM [falling, partial curve] | –
C=CS(=O)(=O)c1ccc(Oc2ccc(S(=O)(=O)C=C)cc2)cc1 | 1.46 µM [falling, full curve] | –
Cc1cc(C)nc(/N=C(\N)Nc2cccc(OCc3ccccc3)c2)n1 | 15.8 µM [rising, single point] | 22.4 µM [falling, single point]

(further entries)

| SMILES | AC50 [1] | AC50 [2] |
| --- | --- | --- |
| O=C(Nc1ccc(Br)cc1)N1CCCCC1 | 15.8 µM [falling, single point] | – |
| CC1(C)C(C=C(Cl)Cl)C1C(=O)N(Cc1cccc(Cl)c1)C1CCS(=O)(=O)C1 (stereo not drawn) | 32.6 µM [falling, single point] | – |
| N#Cc1cc(C(=O)c2ccccc2OCC(=O)Nc2ccccc2Cl)cn(C2CCCCC2)c1=O | 5.17 µM [falling, partial curve, poor fit] | – |
| Cc1ccoc1C(=O)Nc1ccc2ccccc2c1 | 8.91 µM [falling, partial curve] | – |
| COc1cccc2cc(C(C)N(CCCN3CCOCC3)C(=S)Nc3cc(C)cc(C)c3)oc12 (stereo not drawn) | 31.6 µM [falling, single point] | – |
| C/C(=N/NC(=O)c1ccccc1)C(=O)O | 14.1 µM [falling, single point] | – |
| CCOc1cc(C(=O)Nc2ccncc2)cc(OCC)c1OCC | 22.4 µM [falling, partial curve] | – |
| COc1ccc2nc(NC(=O)Nc3ccccc3)sc2c1 | 14.1 µM [falling, partial curve] | – |
| CCn1cc(Cl)c(C(=O)N2N=C(c3ccc4ccccc4c3)CC2c2ccccc2O)n1 (stereo not drawn) | 29.1 µM [falling, single point] | 23.1 µM [falling, single point] |
| c1ccc(NC2=Nc3cccc4cccc2c34)cc1 | 12.6 µM [falling, single point] | – |
| COc1cc(/C=C/C(=O)OC(C)C(=O)NC2CCCCC2C)cc(Cl)c1OC (stereo not drawn) | 3.66 µM [rising, full curve, poor fit] | – |
| COc1ccccc1CNC(=O)c1cc(-c2ccccc2)n(Cc2cc(C)no2)n1 | 29.1 µM [falling, partial curve, poor fit] | – |
| CCC(C(=O)O/N=C(\N)c1cccc(C)c1)c1ccccc1 (stereo not drawn) | 16.4 µM [rising, single point] | – |
| NC(=S)Nc1nc2ccccc2[nH]c1=O | 2.06 µM [rising, partial curve, poor fit] | – |
| CCc1cc(C(=O)c2ccc(OC)cc2)c(NC(=O)CN2CCCCC2)s1 | 5.01 µM [rising, full curve] | – |
| Cc1ccccc1N1CCN(C2CCCN(C(=O)c3noc4c3CCCC4)C2)CC1 (stereo not drawn) | 35.5 µM [falling, single point] | – |
| CNC(=O)NC(=O)C(C)OC(=O)c1ccc(Cl)c(S(=O)(=O)Nc2ccc(F)cc2)c1 (stereo not drawn) | 35.5 µM [rising, single point] | – |
| O=C(NCc1ccc(Cl)cc1)c1ccc(COCC(F)(F)F)o1 | 2.91 µM [falling, partial curve, poor fit] | – |
| Cc1cc(/C=N/NC(=O)c2ccc(O)cc2)c(C)n1C1CC1 | 2.51 µM [falling, full curve] | – |
| CCN(CC)C(=O)CSc1nc2c(sc(=S)n2-c2ccccc2)c(=O)n1Cc1ccco1 | 0.259 µM [falling, full curve, poor fit] | – |
